Laboratory results reported in patent US11786584B2, “Peptides and combination of peptides for use in immunotherapy against prostate cancer and other cancers” (Immatics Biotechnologies GmbH, priority 2015, dated 2023).

Legend:
tumor samples = test: Absolute quantitation of peptide copies per cell by nanoLC-MS/MS; set-up: species or system human; conditions: median over tumor samples
[1] = test system: prostate tumor tissues compared to a panel of normal tissues; test: Label-free relative LC-MS quantitation of HLA-A*24 peptide presentation (presentation score); set-up: species or system human; key: very highly over-presented on tumors compared to a panel of normal tissues (+++); highly over-presented on tumors compared to a panel of normal tissues (++); over-presented on tumors compared to a panel of normal tissues (+); conditions: HLA-A*24 peptides; tumors vs panel of normal tissues
[2] = test system: prostate tumor tissues compared to a panel of normal tissues; test: Label-free relative LC-MS quantitation of HLA-A*02 peptide presentation (presentation score); set-up: species or system human; key to Peptide Presentation: very highly over-presented on tumors compared to a panel of normal tissues (+++); highly over-presented on tumors compared to a panel of normal tissues (++); over-presented on tumors compared to a panel of normal tissues (+); conditions: for Peptide Presentation: HLA-A*02 peptides, tumors vs panel of normal tissues; for detection of the peptide on further tissues: HLA-A*02, figure legend FIG. 1A, 1D

Substance	Copies per cell (median) (tumor samples)	Peptide Presentation [1]	Peptide Presentation [2]	also measured
54 (AYSEKVTEF; listed as Homo sapiens) [compound 54]	+++ (> = 1,000 +++)			
24 (SYNDALLTF; listed as Homo sapiens) [compound 24]	+++ (> = 1,000 +++)	+++		
48 (AWAPKPYHKF; listed as Homo sapiens) [compound 48]		++		
10 (TLWRGPVVV; listed as Homo sapiens) [compound 10]			+++	
9 (GMLNEAEGKAIKL; listed as Homo sapiens) [compound 9]			++	
8 (LLDFSLADA; listed as Homo sapiens) [compound 8]			+++	
42 (TYIGQGYII; listed as Homo sapiens) [compound 42]	++ (> = 100 = ++)	+++		
21 (YLNDSLRHV; listed as Homo sapiens) [compound 21]			+++	
50 (TLGPASFLV; listed as Homo sapiens) [compound 50]	++ (> = 100 = ++)			
35 (IYTRVTYYL; listed as Homo sapiens) [compound 35]		+++		
3 (HLLEDIAHV; listed as Homo sapiens) [compound 3]	++ (> = 100 = ++)		+++	
2 (SMLGEEIQL; listed as Homo sapiens) [compound 2]	++ (> = 100 = ++)		+++	
25 (IYEPYLAMF; listed as Homo sapiens) [compound 25]		+		
6 (ALLESRVNL; listed as Homo sapiens) [compound 6]	+ (<100 = +)		+++	
38 (VYSDKLWIF; listed as Homo sapiens) [compound 38]		++		
20 (SLLSHQVLL; listed as Homo sapiens) [compound 20]			+++	detection of the peptide on further tissues [2]: not detected on any normal tissue
31 (AYTSPPSFF; listed as Homo sapiens) [compound 31]		+++		
37 (RYLQDLLAW; listed as Homo sapiens) [compound 37]		+++		
55 (LYFEKGEYF; listed as Homo sapiens) [compound 55]	+++ (> = 1,000 +++)			
43 (AYIKNGQLF; listed as Homo sapiens) [compound 43]		+++		
28 (YYAKEIHKF; listed as Homo sapiens) [compound 28]	+++ (> = 1,000 +++)	+++		
26 (RYADDTFTPAF; listed as Homo sapiens) [compound 26]	++ (> = 100 = ++)	+++		
17 (RLGIKPESV; listed as Homo sapiens) [compound 17]			++	
14 (KMDEASAQLL; listed as Homo sapiens) [compound 14]			+++	
41 (RYLQKIEEF; listed as Homo sapiens) [compound 41]		+++		

Substance	Copies per cell (median) (tumor samples)	Peptide Presentation [1]	Peptide Presentation [2]	also measured
30 (SYSPAHARL; listed as Homo sapiens) [compound 30]		+++		
4 (ALLTFVWKL; listed as Homo sapiens) [compound 4]	+++ (> = 1,000 +++)		+++	
23 (AVAGADVIITV; listed as Homo sapiens) [compound 23]			+	
5 (KIFSRLIYI; listed as Homo sapiens) [compound 5]	++ (> = 100 = ++)		+++	
19 (LLPPPPLLA; listed as Homo sapiens) [compound 19]			+++	
34 (AFSPDSHYLLF; listed as Homo sapiens) [compound 34]		+++		
46 (VYEEILHQI; listed as Homo sapiens) [compound 46]		++		
18 (GLSEFTEYL; listed as Homo sapiens) [compound 18]			+++	
32 (PYQLNASLFTF; listed as Homo sapiens) [compound 32]		+++		
47 (SYTPVLNQF; listed as Homo sapiens) [compound 47]		++		
44 (VYNTVSEGTHF; listed as Homo sapiens) [compound 44]		+		
1 (VTAQIGIVAV; listed as Homo sapiens) [compound 1]	+ (<100 = +)		+++	detection of the peptide on further tissues [2]: also found on small cell lung cancer
45 (RYFKTPRKF; listed as Homo sapiens) [compound 45]		++		
15 (KMDEASAQLLA; listed as Homo sapiens) [compound 15]			+++	
22 (SLYDSIAFI; listed as Homo sapiens) [compound 22]			+++	
57 (KYADKIYSI; listed as Homo sapiens) [compound 57]	+++ (> = 1,000 +++)			
27 (GYLQGLVSF; listed as Homo sapiens) [compound 27]	++++ (> = 10,000 = ++++)	+++		
56 (LFHPEDTGQVF; listed as Homo sapiens) [compound 56]	+++ (> = 1,000 +++)			
7 (TLLQVVGVVSV; listed as Homo sapiens) [compound 7]			+++	
40 (RTFSPTYGL; listed as Homo sapiens) [compound 40]			++	
36 (RYMWINQEL; listed as Homo sapiens) [compound 36]		++		
11 (YLEEECPAT; listed as Homo sapiens) [compound 11]			+++	
39 (SYIDVAVKL; listed as Homo sapiens) [compound 39]		+		
29 (RYGSPINTF; listed as Homo sapiens) [compound 29]		+++		
12 (SLNEEIAFL; listed as Homo sapiens) [compound 12]			+++	
